The record followed here is publication PMC6180346, “Two Faces of CwlM, an Essential PknB Substrate, in Mycobacterium tuberculosis” (Cell Reports, 2018).

No constants are given. Whether binding was seen depends on the method and setting. Binding can be weak; no strength is given.

This assay deals with Rv0020c_FHA domain (M. tuberculosis). Put plainly: NMR titration; 1H-15N HSQC at 800 MHz, 20°C, 80 μM 15N-labeled Rv0020c-FHA in 10 mM sodium phosphate pH 6.8, 100 mM NaCl, 1 mM Tris-HCl, 5% D2O, with 80 μM unlabeled peptide; both purified.
As to NDRPTGTFTFAELLA (phosphothreonine at 386; N-terminal acetyl; C-terminal amide) [AC-…(phospho)FAELLA-NH2], the binding result is on record as “binds”.
The entry for NDRPTGTFTFAELLA (phosphothreonine at 382; N-terminal acetyl; C-terminal amide) [AC-NDRPT(phospho)…-NH2] is “binds”; for NDRPTGTFTFAELLA (phosphothreonine at 382 and 386; N-terminal acetyl; C-terminal amide) [AC-NDRPT(phospo)GTFT(phospo)FAELLA-NH2] it is “binds”.
Turning to NDRPTGTFTFAELLA (N-terminal acetyl; C-terminal amide) [AC-…-NH2 peptide], the binding result was “no binding (tested: 80 μM)”.
